Literature values, collected in US20260327260A1, “PHOSPHONOALANINE OLIGOPEPTIDES AND METHODS OF MAKING AND USE THEREOF” (priority 2023, published 2026).
At least one structure is not confirmed: it was looked up by name or label, or the drawing left a doubt.

Test system: viral polymerases
Settings: role: inhibitor; pyrophosphate analog; cited from earlier work

O=C(O)P(=O)(O)O [Foscarnet, phosphonoformate]
viral polymerase inhibition: inhibits viral polymerases
